# Measurements taken from the supplement of paper PMC8728848.
# Some of the results follow.
# B1: PX14375D-bvu-513-34-513 (Bacteroides vulgatus) (protein)
# chain: TEDTFWKDETDFNLALTSCYTPLKNALNGGYYGTRGVMLRIARADEVDFRNDISDVYTVNRFTNSNTNSLTQGMFYQFYNALYRTNSIMQKLEEKKEQFSTDFQNSVKGECLFIRGFYLFQLAKEFKDAPLRLTASQSPSTFPLAKSSQADIWAQAKEDLKTAASLLPITNKIGKPTQGAAYAALGKIYVYEENWQEAINVLEPLTQNPYTYKLVEDFNWNFDDTHENNAESIFELLIEDVGGTDLWGDGENINSTQSNTRPKEYAAAEVGGWYEANPTQQIMDIFWKEKDKDGNFDYRARCSVAWDYEGCTYYQRPFREVFAQDKWKTYWILKYQNWKTQKDEPAPPKSFINERAIRYADVLLMLAEAYMNKGALDTSIGYINQIRRRANLNDYSGPITKEGVFEDLVHQRAIEFFVEGERFYDLRRWGLLEQTLKTCDDTRYKNYQTGKSDNINKFNYFPIPAKELDTNPLCTPSEGW
# What was measured:
# Assay in all cases: glycan array binding signal (z-score within array); higher = stronger binding
# Conditions in all cases: glycan notation: IUPAC condensed, linker removed
# [1] = target: GalNAc3S(b1-4)[Fuc(a1-3)]GlcNAc
# In short: (§1)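 The binding signal is a Z-score computed within each array and averaged over linkers. Arrays of the same protein sequence at different concentrations or buffers were also averaged together. Data originate from 3228 arrays in the Consortium for Functional Glycomics database, kept only where the protein sequence was available.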
# GalNAc4S6S(b1-4)GlcNAc = target: GalNAc4S6S(b1-4)GlcNAc
# In short: as §1
# GalNAc6S(b1-4)GlcNAc = target: GalNAc6S(b1-4)GlcNAc
# In short: as §1
# Glc(a1-4)Glc = target: Glc(a1-4)Glc
# In short: as §1
# [2] = target: Glc(a1-4)Glc(a1-4)Glc(a1-4)Glc
# In short: as §1
# Glc(a1-6)Glc(a1-6)Glc = target: Glc(a1-6)Glc(a1-6)Glc
# In short: as §1
# [3] = target: Glc(a1-6)Glc(a1-6)Glc(a1-6)Glc
# In short: as §1
# Glc(b1-4)Glc = target: Glc(b1-4)Glc
# In short: as §1
# Glc(b1-6)Glc = target: Glc(b1-6)Glc
# In short: as §1
# GlcA(b1-3)Gal = target: GlcA(b1-3)Gal
# In short: as §1
# GlcA(b1-3)GlcNAc = target: GlcA(b1-3)GlcNAc
# In short: as §1
# GlcA(b1-6)Gal = target: GlcA(b1-6)Gal
# In short: as §1
# [4] = target: GlcA3S(b1-3)Gal(b1-4)GlcNAc(b1-2)Man
# In short: as §1
# [5] = target: GlcA3S(b1-3)Gal(b1-4)GlcNAc(b1-3)Gal(b1-4)Glc
# In short: as §1
# [6] = target: GlcNAc(a1-3)Gal(b1-4)GlcNAc
# In short: as §1
# [7] = target: GlcNAc(a1-4)Gal(b1-3)GlcNAc
# In short: as §1
# [8] = target: GlcNAc(a1-4)Gal(b1-4)GalNAc
# In short: as §1
# [9] = target: GlcNAc(a1-4)Gal(b1-4)GlcNAc
# In short: as §1
# [10] = target: GlcNAc(a1-4)Gal(b1-4)GlcNAc(b1-3)Gal(b1-4)Glc
# In short: as §1
# [11] = target: GlcNAc(a1-4)Gal(b1-4)GlcNAc(b1-3)Gal(b1-4)GlcNAc
# In short: as §1
# [12] = target: GlcNAc(a1-4)Gal(b1-4)GlcNAc(b1-3)Gal(b1-4)GlcNAc(b1-3)Gal(b1-4)GlcNAc
# In short: as §1
# [13] = target: GlcNAc(a1-4)Gal(b1-4)GlcNAc(b1-3)Gal(b1-4)[Fuc(a1-3)]GlcNAc(b1-3)Gal(b1-4)[Fuc(a1-3)]GlcNAc
# In short: as §1
# [14] = target: GlcNAc(a1-6)Gal(b1-4)GlcNAc
# In short: as §1
# [15] = target: GlcNAc(b1-2)Gal(b1-3)GalNAc
# In short: as §1
# [16] = target: GlcNAc(b1-2)Man(a1-3)[GlcNAc(b1-2)Man(a1-6)]Man(b1-4)GlcNAc(b1-4)GlcNAc
# In short: as §1
# [17] = target: GlcNAc(b1-2)Man(a1-3)[GlcNAc(b1-2)Man(a1-6)]Man(b1-4)GlcNAc(b1-4)[Fuc(a1-6)]GlcNAc
# In short: as §1
# [18] = target: GlcNAc(b1-2)Man(a1-3)[GlcNAc(b1-4)][GlcNAc(b1-2)Man(a1-6)]Man(b1-4)GlcNAc(b1-4)GlcNAc
# In short: as §1
# [19] = target: GlcNAc(b1-2)Man(a1-3)[GlcNAc(b1-4)][GlcNAc(b1-2)Man(a1-6)]Man(b1-4)GlcNAc(b1-4)[Fuc(a1-6)]GlcNAc
# In short: as §1
# [20] = target: GlcNAc(b1-2)[GlcNAc(b1-4)]Man(a1-3)[GlcNAc(b1-2)Man(a1-6)]Man(b1-4)GlcNAc(b1-4)GlcNAc
# In short: as §1
# [21] = target: GlcNAc(b1-2)[GlcNAc(b1-4)]Man(a1-3)[GlcNAc(b1-4)][GlcNAc(b1-2)Man(a1-6)]Man(b1-4)GlcNAc(b1-4)GlcNAc
# In short: as §1
# [22] = target: GlcNAc(b1-2)[GlcNAc(b1-4)]Man(a1-3)[GlcNAc(b1-4)][GlcNAc(b1-2)[GlcNAc(b1-6)]Man(a1-6)]Man(b1-4)GlcNAc(b1-4)GlcNAc
# In short: as §1
# [23] = target: GlcNAc(b1-2)[GlcNAc(b1-4)]Man(a1-3)[GlcNAc(b1-4)][GlcNAc(b1-2)[GlcNAc(b1-6)]Man(a1-6)]Man(b1-4)GlcNAc(b1-4)[Fuc(a1-6)]GlcNAc
# In short: as §1
# [24] = target: GlcNAc(b1-2)[GlcNAc(b1-6)]Man(a1-6)[GlcNAc(b1-2)Man(a1-3)]Man(b1-4)GlcNAc(b1-4)GlcNAc
# In short: as §1
# [25] = target: GlcNAc(b1-2)[GlcNAc(b1-6)]Man(a1-6)[GlcNAc(b1-2)Man(a1-3)]Man(b1-4)GlcNAc(b1-4)[Fuc(a1-6)]GlcNAc
# In short: as §1
# [26] = target: GlcNAc(b1-2)[GlcNAc(b1-6)]Man(a1-6)[GlcNAc(b1-4)][GlcNAc(b1-2)Man(a1-3)]Man(b1-4)GlcNAc(b1-4)GlcNAc
# In short: as §1
# GlcNAc(b1-3)Fuc = target: GlcNAc(b1-3)Fuc
# In short: as §1
# GlcNAc(b1-3)Gal = target: GlcNAc(b1-3)Gal
# In short: as §1
# [27] = target: GlcNAc(b1-3)Gal(b1-3)GalNAc
# In short: as §1
binder,measurement,setting,value
B1,glycan array binding signal (z-score),[1],-0.617
same,glycan array binding signal (z-score),GalNAc4S6S(b1-4)GlcNAc,0.934
same,glycan array binding signal (z-score),GalNAc6S(b1-4)GlcNAc,-0.658
same,glycan array binding signal (z-score),Glc(a1-4)Glc,-0.303
same,glycan array binding signal (z-score),[2],-0.166
same,glycan array binding signal (z-score),Glc(a1-6)Glc(a1-6)Glc,-0.642
same,glycan array binding signal (z-score),[3],0.354
same,glycan array binding signal (z-score),Glc(b1-4)Glc,0.371
same,glycan array binding signal (z-score),Glc(b1-6)Glc,-0.68
same,glycan array binding signal (z-score),GlcA(b1-3)Gal,-0.476
same,glycan array binding signal (z-score),GlcA(b1-3)GlcNAc,-0.958
same,glycan array binding signal (z-score),GlcA(b1-6)Gal,-0.039
same,glycan array binding signal (z-score),[4],-0.067
same,glycan array binding signal (z-score),[5],-0.213
same,glycan array binding signal (z-score),[6],-0.611
same,glycan array binding signal (z-score),[7],-0.072
same,glycan array binding signal (z-score),[8],1.48
same,glycan array binding signal (z-score),[9],-0.103
same,glycan array binding signal (z-score),[10],0.64
same,glycan array binding signal (z-score),[11],-0.133
same,glycan array binding signal (z-score),[12],0.035
same,glycan array binding signal (z-score),[13],0.3
same,glycan array binding signal (z-score),[14],-0.303
same,glycan array binding signal (z-score),[15],0.068
same,glycan array binding signal (z-score),[16],-0.403
same,glycan array binding signal (z-score),[17],-0.688
same,glycan array binding signal (z-score),[18],-0.094
same,glycan array binding signal (z-score),[19],-0.348
same,glycan array binding signal (z-score),[20],0.443
same,glycan array binding signal (z-score),[21],-0.188
same,glycan array binding signal (z-score),[22],-0.074
same,glycan array binding signal (z-score),[23],-0.453
same,glycan array binding signal (z-score),[24],0.632
same,glycan array binding signal (z-score),[25],0.135
same,glycan array binding signal (z-score),[26],0.178
same,glycan array binding signal (z-score),GlcNAc(b1-3)Fuc,-0.96
same,glycan array binding signal (z-score),GlcNAc(b1-3)Gal,-0.36
same,glycan array binding signal (z-score),[27],0.465

# Some of the entries above, set out differently.
binder | measurement | setting | value
B1 | glycan array binding signal (z-score) | [9] | -0.103
same | glycan array binding signal (z-score) | [10] | 0.64
same | glycan array binding signal (z-score) | [11] | -0.133
same | glycan array binding signal (z-score) | [12] | 0.035
same | glycan array binding signal (z-score) | [13] | 0.3
same | glycan array binding signal (z-score) | [14] | -0.303
same | glycan array binding signal (z-score) | [15] | 0.068
